Measured values as given in PMC12722638.
No constants are given. Whether binding was seen depends on the method and setting. Binding seen in cells or lysates may run through a third protein. These calls come from enrichment with a bait or labelling near it, and not all partners need be listed.

Sequences of proteins named here, by UniProt entry; tags and fusion partners are left off. A change or cut given only in a name is not applied to a line headed by its entry.
UniProt Q13404: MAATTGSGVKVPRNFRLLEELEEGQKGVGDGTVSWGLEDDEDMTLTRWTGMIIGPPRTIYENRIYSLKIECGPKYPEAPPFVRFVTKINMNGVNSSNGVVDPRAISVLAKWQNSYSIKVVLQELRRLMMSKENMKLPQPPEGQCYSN
UniProt P40337: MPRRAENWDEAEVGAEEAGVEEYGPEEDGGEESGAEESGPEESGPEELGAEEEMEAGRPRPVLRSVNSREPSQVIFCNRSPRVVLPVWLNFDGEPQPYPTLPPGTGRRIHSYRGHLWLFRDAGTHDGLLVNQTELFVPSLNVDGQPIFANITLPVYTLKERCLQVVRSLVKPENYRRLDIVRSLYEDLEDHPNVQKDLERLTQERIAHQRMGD

Target: Flag-UBE2V1 (ubiquitin conjugating enzyme E2 variant 1) (UniProt Q13404)
Test: affinity purification with mass spectrometry; IP of Flag-UBE2V1; gel bands digested with trypsin, LC-MS/MS on a timsTOF Pro; cells not named

binding: binds
Substance: von Hippel-Lindau (VHL) protein, endogenous (from UniProt P40337 1-213)
